According to US20210198647A1, “Enhancers of Neurolysin Activity” (Texas Tech University System, priority 2018, published 2021):
Some entries share one result that the patent states for a list of compounds.

Test: In vitro metabolic stability in mouse plasma and brain homogenate
Settings: versus dipeptide hits

SMILES | improved stability in mouse brain homogenate
N[C@@H](Cc1c[nH]cn1)C(=O)NCCc1c[nH]c2ccccc12 [Compound 9d, (S)—N-(2-(1H-indol-3-yl)ethyl)-2-amino-3-(1H-imidazol-4-yl)propanamide] | at least 41 fold
N[C@@H](Cc1c[nH]cn1)C(=O)NCc1cccc2ccccc12 [Compound 10c, (S)-2-amino-3-(1H-imidazol-4-yl)-N-(naphthalen-1-ylmethyl)propanamide] | at least 41 fold
